Assay results reported in the supplement of paper PMC12823440, “Inhibitors supercharge kinase turnover through native proteolytic circuits” (Nature, 2025).
Counter-ions that a name gives are not always drawn. The list shows a part of the results. The calls rarely recur for the same compound in another form.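 In K562 cells expressing nanoluciferase-fused kinases, luminescence was recorded at 4 h intervals between 2 and 18 h, normalized as percent of control with DMSO at 100% and a positive control at 0%. A significant (2 sigma) signal drop marks a time point as decreased. The authors' rule for a hit is not shown and takes in more than the number of time points.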

Chains of the proteins cited; added tags and fusions are not shown. Lines headed by an entry give the natural chain unless they say otherwise; changes in a name come on top.
UniProt Q9UBF8: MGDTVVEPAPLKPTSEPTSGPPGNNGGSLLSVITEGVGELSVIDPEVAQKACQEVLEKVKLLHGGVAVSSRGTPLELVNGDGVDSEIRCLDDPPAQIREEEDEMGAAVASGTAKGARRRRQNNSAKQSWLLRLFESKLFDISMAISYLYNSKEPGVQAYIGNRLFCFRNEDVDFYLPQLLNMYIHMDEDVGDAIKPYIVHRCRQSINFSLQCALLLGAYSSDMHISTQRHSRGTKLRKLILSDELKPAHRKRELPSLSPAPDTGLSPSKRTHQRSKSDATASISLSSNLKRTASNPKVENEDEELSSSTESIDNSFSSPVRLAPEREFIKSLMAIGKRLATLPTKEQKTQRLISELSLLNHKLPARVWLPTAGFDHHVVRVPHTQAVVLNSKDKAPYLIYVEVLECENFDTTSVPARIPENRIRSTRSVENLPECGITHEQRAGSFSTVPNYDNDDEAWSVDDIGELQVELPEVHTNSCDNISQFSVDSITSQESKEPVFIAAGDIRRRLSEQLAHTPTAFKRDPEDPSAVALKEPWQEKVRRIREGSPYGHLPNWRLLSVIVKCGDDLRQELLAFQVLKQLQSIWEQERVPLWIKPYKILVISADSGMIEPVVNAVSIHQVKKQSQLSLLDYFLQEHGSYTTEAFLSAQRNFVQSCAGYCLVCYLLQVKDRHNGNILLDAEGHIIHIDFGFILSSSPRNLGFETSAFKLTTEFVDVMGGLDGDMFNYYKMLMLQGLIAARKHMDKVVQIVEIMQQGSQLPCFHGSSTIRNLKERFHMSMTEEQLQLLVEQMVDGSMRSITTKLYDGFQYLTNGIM

These compounds were tested against PIK4CB (UniProt Q9UBF8) (assay: kinase-Nluc reporter destabilization hit call (1 = scored as downregulated) (binary); higher = compound decreases kinase abundance). Conditions: K562; 2-18 h.

| Structure (SMILES) | kinase-Nluc reporter destabilization hit call |
| --- | --- |
| CCS(=O)(=O)c1ncc(Cl)c(C(=O)N(Cc2ccc(Cl)cc2)Cc2ccco2)n1 (2.5 µM) | inactive: 0 |
| Nc1cc(C(F)(F)F)c(-c2cc(N3CCOCC3)nc(N3CCOCC3)n2)cn1 [Buparlisib (Hydrochloride)] (2.5 µM) | inactive: 0 |
| COc1cc(Nc2ncc(F)c(Nc3ccc4c(n3)N(COP(=O)(O)O)C(=O)C(C)(C)O4)n2)cc(OC)c1OC [Fostamatinib Disodium] (10 µM) | inactive: 0 |
| CC(C)(O)CNc1ncc(-c2ccnc(Nc3ccnc(Cl)c3)n2)c(CC2CC2)n1 (2.5 µM) | inactive: 0 |
| O=Nc1c(-c2c(O)[nH]c3ccc(I)cc23)[nH]c2ccccc12 [5-Iodo-indirubin-3'-monoxime] (10 µM) | inactive: 0 |
| Cc1cc(Nc2ncnc3ccc(NC4=NC(C)(C)CO4)cc23)ccc1Oc1ccn2ncnc2c1 [Tucatinib] (2.5 µM) | inactive: 0 |
| CCS(=O)(=O)Nc1ccc2[nH]c(O)c(C(=Nc3ccc(CN4CCCCC4)cc3)c3ccccc3)c2c1 [Hesperadin] (2.5 µM) | inactive: 0 |
| COc1cc2c(cc1OC)CN(S(=O)(=O)c1ccc(OC)c(N3CCN(C(=O)c4ccc(F)cc4C(F)(F)F)CC3)c1)CC2 (10 µM) | inactive: 0 |
| O=C([O-])c1cc2ccccc2c(Cc2c(O)c(C(=O)[O-])cc3ccccc23)c1O.[Na+].[Na+] [Pamoic acid (disodium)] (10 µM) | inactive: 0 |
| Cn1cc(-c2ccc3nnc(Sc4ccc5ncccc5c4)n3n2)cn1 (10 µM) | inactive: 0 |
| Cc1cc(O)c2c(c1)C(=O)c1cc(O)cc(O)c1C2=O [Emodin] (10 µM) | inactive: 0 |
| COc1cc2c(N3CCN(C(=O)Nc4ccc(OC(C)C)cc4)CC3)ncnc2cc1OCCCN1CCCCC1 [Tandutinib (hydrochloride)] (10 µM) | inactive: 0 |
| CCC(C)N1c2ccccc2C(=O)N(C)c2cnc(Nc3ccc(C(=O)N4CCC(N5CCN(C)CC5)CC4)cc3OC)nc21 (centres undefined) (2.5 µM) | inactive: 0 |
| COc1cc(Nc2ncc(F)c(Nc3ccc4c(n3)NC(=O)C(C)(C)O4)n2)cc(OC)c1OC (10 µM) | inactive: 0 |
| NS(=O)(=O)c1ccc(-n2nc(C(F)(F)F)cc2-c2ccc(Cl)cc2)cc1 (10 µM) | inactive: 0 |
| Cc1c(NC(=O)c2cccn(-c3ccc(F)cc3)c2=O)ccc(Oc2ccnc(NC(=O)C3CC3)c2)c1C (2 µM) | inactive: 0 |
| c1ccc(-c2[nH]ncc2-c2ccnc3ccccc23)nc1 (10 µM) | inactive: 0 |
| CN(C)CCCOc1ccc(-c2ccc3ncc4c(c3c2)n(C2CCOCC2)c(=O)n4C)cn1 (2 µM) | inactive: 0 |
| COc1cc(Nc2ncc(F)c(Nc3ccc4c(n3)NC(=O)C(C)(C)O4)n2)cc(OC)c1OC [R406 (free base)] (10 µM) | inactive: 0 |
| OCCn1cc(-c2ccc3c(c2)CC/C3=N\O)c(-c2ccncc2)n1 (10 µM) | inactive: 0 |

Given with tabs: entries from further up.
Structure (SMILES)	kinase-Nluc reporter destabilization hit call
O=C([O-])c1cc2ccccc2c(Cc2c(O)c(C(=O)[O-])cc3ccccc23)c1O.[Na+].[Na+] [Pamoic acid (disodium)] (10 µM)	inactive: 0
Cn1cc(-c2ccc3nnc(Sc4ccc5ncccc5c4)n3n2)cn1 (10 µM)	inactive: 0

Remaining list, next part.

| Structure (SMILES) | kinase-Nluc reporter destabilization hit call |
| --- | --- |
| C[C@@H]1CCN(C(=O)CC#N)C[C@@H]1N(C)c1ncnc2[nH]ccc12 [Tofacitinib] (10 µM) | inactive: 0 |
| C[C@@H]1CCN(C(=O)CC#N)C[C@@H]1N(C)c1ncnc2[nH]ccc12 [Tofacitinib (citrate)] (10 µM) | inactive: 0 |
| FC(F)(c1ccc2ncccc2c1)c1nnc2ccc(-c3ccncc3)nn12 (10 µM) | inactive: 0 |
| O=C1NC(=O)/C(=C\c2cccc(C(F)(F)F)c2)S1 (2.5 µM) | inactive: 0 |
| N#CCC1CCN(c2nc(Nc3ccc(N4CCC(O)CC4)cc3)c3c(=O)[nH]ncc3n2)CC1 [Gusacitinib] (10 µM) | inactive: 0 |
| Nc1ncnc2c1c(-c1cccc(OCc3ccccc3)c1)cn2C1CC(CN2CCC2)C1 (centres undefined) (2.5 µM) | inactive: 0 |
| CCNc1nc(Nc2cc(F)c(C(=O)N3CCOCC3)cc2OC)ncc1C(F)(F)F [GNE-7915 (tosylate)] (10 µM) | inactive: 0 |
| Cn1cnc2c(F)c(Nc3ccc(Br)cc3Cl)c(C(=O)NOCCO)cc21 [Selumetinib] (10 µM) | inactive: 0 |
| CCN1CCN(Cc2ccc(-c3cc4c(N[C@H](C)c5ccccc5)ncnc4[nH]3)cc2)CC1 (2.5 µM) | inactive: 0 |
| O=C(N/N=C/c1coc2ccccc2c1=O)c1cccnc1 (10 µM) | inactive: 0 |
| O=Nc1c(-c2c(O)[nH]c3ccc(F)cc23)[nH]c2ccccc12 [5'-Fluoroindirubinoxime] (10 µM) | inactive: 0 |
| CC(=O)NC1CC(n2cnc(NC(=O)Cc3ccc4ccccc4c3)c2)C1 (centres undefined) (10 µM) | inactive: 0 |
| O=C(CSC1=NCCN1)NC1CCCCCC1 [ICCB-19 (hydrochloride)] (2.5 µM) | inactive: 0 |
| N#Cc1c(C2CCNCC2)cc(-c2c(O)cccc2OCC2CC2)nc1N [ACHP (Hydrochloride)] (10 µM) | inactive: 0 |
| CCOC(=O)N1CCN(C(=O)[C@H](Cc2cccc(C(=N)N)c2)NS(=O)(=O)c2c(C(C)C)cc(C(C)C)cc2C(C)C)CC1 (10 µM) | inactive: 0 |
| CN1CCN(c2cnc3c(C4CCN(C(=O)c5ccc(OC(F)(F)F)cc5N)CC4)ncnc3c2)CC1 (10 µM) | inactive: 0 |
| Cc1[nH]c(/C=C2\C(=O)Nc3ccccc32)c(C)c1CCC(=O)O [Orantinib] (10 µM) | inactive: 0 |
| Cn1nccc1Nc1nccc(-c2ccn([C@H](CO)c3ccc(Cl)c(F)c3)c(=O)c2)n1 [Ravoxertinib hydrochloride] (10 µM) | inactive: 0 |
| CCCCCCCCCCCCC/C=C/[C@@H](O)[C@@H](N)CO [D-erythro-Sphingosine] (2.5 µM) | inactive: 0 |
